# Values of other authors in patent US20240398979A1, “Compositions and Methods for Treating Dopamine Disorders” (METAQOR LLC, priority 2020, published 2024).
# For at least one compound, name, drawing or mass did not settle the structure.
# Test system: methamphetamine use disorder
# Settings: randomized controlled trials / meta-analyses
smiles,measurement,value
C[N+](C)(C)CCOP(=O)(O)OP(=O)([O-])OC[C@H]1O[C@@H](n2ccc(N)nc2=O)[C@H](O)[C@@H]1O [citicoline],benefit in treatment of MUD,No effects
